## Results of single-concentration screens

From ChEMBL document CHEMBL3988442, “University of Dundee, Small-Polar-MMV Screening Library” (2021).

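Growth of Mycobacterium tuberculosis over 4 days (cholesterol / DPPC medium with tyloxapol); the read-out is not stated. Concentration: 50 µM. The record gives no direction; compounds that gave an IC50 in retests scored well above the rest, so higher reads as more growth inhibition. About 69,000 compounds were tested under these conditions; 0.54% (about 370) showed 50% or more at least once.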

The filed quantity is “Percent Effect” (%). The record does not define 0% and 100%; most values in the screen are far below 50% and negative numbers occur (in some assays of this library far below -100). The compounds are a random part of those screened. Two or more numbers in one place are separate tests of the same structure; such repeats can differ widely.

| structure | percent effect |
|---|---|
| `Cc1nn(C)cc1C(=O)N1CCCC(n2cncn2)C1` (centres unmarked) | 4.047 |
| `CCOc1ccnc(N2CCN(C(=O)c3cccnc3)CC2)n1` | -7.507 |
| `CC(C)c1noc(CN(C)C(=O)c2ncn[nH]2)n1` | -10.51 |
| `[H][C@@]12CCN(c3ncccn3)[C@@]1([H])CCN2Cc1cccs1` | 13.96 |
| `Cc1csc(C2CCCCN2C(=O)CCCn2cccn2)n1` (centres unmarked) | -6.952 |
| `COc1ccccc1C1(CNc2ccnc(C(=O)N(C)C)c2)CC1` | -8.095 |
| `O=C(CCNC(=O)c1ccoc1)Nc1cccc(F)c1` | 7.385 |
| `Cc1ccc(C2CCCN2Cc2nc3c(cnn3C)c(=O)[nH]2)cc1C` (centres unmarked) | 12.48 |
| `[H][C@@]12CCCO[C@]1([H])[C@H](NS(C)(=O)=O)CN2C(=O)c1cnccn1` | -18.36 |
| `O=C(c1cc(-c2cccnc2)[nH]n1)N1CCCC(c2cnccn2)C1` (centres unmarked) | -10.83 & 3.141 |
| `CCCc1cc(C(=O)N(Cc2cccnc2)Cc2cccnc2)[nH]n1` | -24.39 |
| `Cc1cc(-c2cnc(N3CCC(O)CC3)nc2-c2cccnc2C)on1` | -14.6 |
| `Cc1cccc(C(=O)NCCCN2CCc3ccccc3C2)c1C` | -10.85 |
| `Cc1ccc(CC(=O)N2CCN(CC(O)c3ccccc3)CC2)cn1` (centres unmarked) | 5.343 |
| `CCS(=O)(=O)NCC(Cc1cccc(F)c1)N1CCNC1=O` (centres unmarked) | -19.87 |
| `OCC(O)CSCc1ccc(F)cc1Cl` (centres unmarked) | 17.65 |
| `CC(C)(C)c1n[nH]c(C2CN(Cc3nnc(C4CC4)o3)CCO2)n1` (centres unmarked) | 7.348 |
| `O=C(c1ccccn1)N1CCc2c(nc(-c3ccncc3)[nH]c2=O)C1` | -11.34 |
| `CCC[C@H]1CN(S(=O)(=O)c2ccc(Cl)cc2)C[C@@H]1NC(C)=O` | -7.723 |
| `Cc1ccccc1-c1cc(NC(=O)NC2CC2)n(CCO)n1` | -7.702 |
| `O=C(O)C(F)(F)F.O=C(O)C(F)(F)F.c1cncc(OCc2noc3c2CN(Cc2ccsc2)CC3)c1` | -3.668 |
| `Cn1cc(CCNC(=O)NC2CCN(Cc3ccccn3)CC2)cn1` | -42.26 |
| `Cc1cc(C)cc(-c2ccc(CC3(C(=O)O)CCOCC3)cc2)c1` | -22.05 |
| `Cn1nccc1CNS(=O)(=O)c1cc(F)ccc1Br` | 23.48 |
| `O=C(NCCn1cnc(C2CCCC2)cc1=O)NCc1cccs1` | 5.701 |
| `Cc1ncc(CN(C)C(=O)Nc2cccc(CN3CCOC3=O)c2)s1` | 15.21 |
| `CCN(CC)C(=O)C1CCN(C(=O)Nc2cccnc2OC)CC1` | -3.816 |
| `COCCC1(CO)CCCN(Cc2ccc(C(F)(F)F)cc2)C1` (centres unmarked) | 11.77 & 8.31 |
| `CN(C(=O)c1cc(F)ccc1F)[C@@H]1CC[C@@H](O)[C@@H]1O` | -2.209 |
| `CN(Cc1n[nH]c2c1CCC2)C(=O)c1cc(-c2cccn2C)n[nH]1` | -18.79 |
| `O=C1NCC(C(=O)N(Cc2ccc(C(F)(F)F)cc2)C2CC2)N1` (centres unmarked) | -9.8 |
| `NC(=O)c1ccc(N2CCCCC2)c(NC(=O)c2cc(Br)ccc2F)c1` | -23.27 |
| `Cc1noc(CN(Cc2cccs2)C2CCS(=O)(=O)C2)n1` (centres unmarked) | -8.677 |
| `CCc1noc(C)c1C(=O)NCCCC(CC)(CC)C1OCCO1` | -1.201 |
| `CCNC(=O)CN1CCC(OCC2CCCO2)CC1` (centres unmarked) | 17.54 |
| `CCN(CC)CC(=O)Nc1ccc(-n2ccc(C(N)=O)n2)cc1` | -23.85 |
| `N#CCCCS(=O)(=O)NC1(c2ccc(F)cc2)CC1` | -5.647 |
| `N#Cc1ccccc1C(=O)Nc1cccc(CN2CCC(CO)CC2)c1` | -4.867 |
| `COCCN(CCC#N)S(=O)(=O)c1cc(F)ccc1F` | -5.19 |
| `[H][C@]12CNCCN1C[C@@H](C(=O)OCC)[C@@H]2c1ccccc1` | 10.2 |
| `CN(Cc1cn2c(n1)CN(Cc1ccsc1)CC2)Cc1ccco1.O=C(O)C(F)(F)F.O=C(O)C(F)(F)F` | -6 & -14.39 |
| `CN(Cc1ccon1)C1CCN(c2cccc(-c3cscn3)c2)CC1` | 1.798 |
| `Cn1nc(C2CN(C(=O)c3ccncc3)C2)c2nccnc21` | -25.96 |
| `Cc1cc(NCc2cc3n(n2)CCCN(S(C)(=O)=O)C3)ncn1` | 2.642 |
| `CCCC1(CO)CCCN(C(=O)CNC(C)=O)C1` (centres unmarked) | -17.37 |
| `CC(C)NC(=O)C1CN(Cc2ccc(F)cc2)CC12CCOCC2.O=C(O)C(F)(F)F` (centres unmarked) | -0.1477 |
| `Cc1cccc(CN2CCC(N(C)Cc3nnc(C4CC4)n3C)C2)c1` (centres unmarked) | 7.648 |
| `Cc1cnn(CC2CCCN2CC(=O)Nc2nncs2)c1` (centres unmarked) | 8.675 |
| `CC(O)CN1CCN(C(=O)c2cnn(-c3ccccc3F)c2)CC1` (centres unmarked) | 21.33 |
| `O=C(O)C(F)(F)F.[H][C@@]12CN(C(=O)c3cnoc3C)C[C@]1([H])C(=O)N(Cc1cccc(C)n1)C2` | -11.17 |
| `O=C(NC1(c2nnn(CCO)n2)CCCC1)c1ccccc1` | 10.78 |
| `Cn1ccc(CN2CCCC(CNS(C)(=O)=O)C2)cc1=O` (centres unmarked) | -9.858 |
| `CC(=O)NCCCNCc1ccc(Cl)c2cccnc12` | 7.657 |
| `CN(Cc1cnc(N)nc1)C(=O)c1coc(COc2cccc(F)c2)n1` | -0.1763 |
| `O=C(O)C(F)(F)F.O=C(c1c[nH]cn1)N1CCC(F)(F)C2(CCN(c3ncccn3)C2)C1` (centres unmarked) | 17.52 & -7.665 |
| `CC(C)c1nc(CN2CCC(c3ccnn3CCO)CC2)no1` | -28.26 |
| `Cc1csc(CNc2ccc(-c3nc(C4CC4)no3)cn2)n1` | 20.02 |
| `Cc1occc1C(=O)NCC1OCCc2cn(C)nc21.O=C(O)C(F)(F)F` (centres unmarked) | -6.068 |
| `O=C(O)C(F)(F)F.[H][C@@]12CCCO[C@]1([H])[C@H](N(C)Cc1cncnc1)CN2C(=O)C1CC1` | 6.498 |
| `Cc1cc(N2CCC3(CCC(=O)N(CCO)C3)CC2)nc(N(C)C)n1` | 3.287 |
| `Cc1ncc(CNC(=O)NCC(C)Oc2ccccc2F)s1` (centres unmarked) | 20.36 |
| `CNS(=O)(=O)CC(=O)NC(C)Cc1ccc(Br)cc1` (centres unmarked) | 2.914 |
| `CCc1nccn1C1CCCN(C(=O)CCCNc2ncccn2)C1` (centres unmarked) | -17.87 |
| `O=C(CCN1CCOC(Cn2cccn2)C1)NC1CCCC1` (centres unmarked) | -2.543 |
| `Cc1ccc(NC(=O)Nc2cnc(N3CCN(C)CC3)nc2)cc1` | -10.71 |
| `Cc1ccc(SCCN(C)C(=O)c2cn(CCN)nn2)cc1` | -13.41 |
| `CCn1cnnc1CNC(=O)N(C)Cc1ccc2c(c1)OCCO2` | -30.38 |
| `Cc1nnc(C(C)N(C)Cc2c(C)nn(-c3ccccc3C)c2C)o1` (centres unmarked) | -14.24 |
| `CS(=O)(=O)N(Cc1ccon1)c1ccc2c(c1)OCO2` | 1.687 |
| `Cc1nc(C)n(Cc2cccc(NC(=O)NC(C)(CO)C3CC3)c2)n1` (centres unmarked) | 2.517 |
| `O=C(O)C(F)(F)F.[H][C@@]12C[C@@H](C)O[C@]1([H])CN(Cc1nccs1)C2` | -14.56 |
| `COc1ccccc1OCCC(=O)N1CCCC1Cn1cccn1` (centres unmarked) | -9.815 |
| `COCC1CN(Cc2ccccn2)Cc2nn(C)cc21` (centres unmarked) | -19.92 |
| `O=C(NCC(F)(F)C(F)F)c1ccncc1` | -13 |

The last 9 entries again:

Cc1ccc(SCCN(C)C(=O)c2cn(CCN)nn2)cc1 read -13.41%.
CCn1cnnc1CNC(=O)N(C)Cc1ccc2c(c1)OCCO2 read -30.38%.
Cc1nnc(C(C)N(C)Cc2c(C)nn(-c3ccccc3C)c2C)o1 (centres unmarked) read -14.24%.
CS(=O)(=O)N(Cc1ccon1)c1ccc2c(c1)OCO2 read 1.687%.
Cc1nc(C)n(Cc2cccc(NC(=O)NC(C)(CO)C3CC3)c2)n1 (centres unmarked) read 2.517%.
O=C(O)C(F)(F)F.[H][C@@]12C[C@@H](C)O[C@]1([H])CN(Cc1nccs1)C2 read -14.56%.
COc1ccccc1OCCC(=O)N1CCCC1Cn1cccn1 (centres unmarked) read -9.815%.
COCC1CN(Cc2ccccn2)Cc2nn(C)cc21 (centres unmarked) read -19.92%.
O=C(NCC(F)(F)C(F)F)c1ccncc1 read -13%.